Results are given in words; binding and its absence hold for the method and conditions named. In cells and extracts the contact can be indirect. These calls come from enrichment with a bait or labelling near it, and not all partners need be listed. A no says only that the protein was not detected with the bait. Where a sequence is shown, tags or fusion partners need not be part of it.
Biological target: T1, full-length PC2 fused with FLAG-BirA* (PC2-BF / FB-PC2 BioID baits, datasets merged) (human) (UniProt Q13563)
T1 sequence: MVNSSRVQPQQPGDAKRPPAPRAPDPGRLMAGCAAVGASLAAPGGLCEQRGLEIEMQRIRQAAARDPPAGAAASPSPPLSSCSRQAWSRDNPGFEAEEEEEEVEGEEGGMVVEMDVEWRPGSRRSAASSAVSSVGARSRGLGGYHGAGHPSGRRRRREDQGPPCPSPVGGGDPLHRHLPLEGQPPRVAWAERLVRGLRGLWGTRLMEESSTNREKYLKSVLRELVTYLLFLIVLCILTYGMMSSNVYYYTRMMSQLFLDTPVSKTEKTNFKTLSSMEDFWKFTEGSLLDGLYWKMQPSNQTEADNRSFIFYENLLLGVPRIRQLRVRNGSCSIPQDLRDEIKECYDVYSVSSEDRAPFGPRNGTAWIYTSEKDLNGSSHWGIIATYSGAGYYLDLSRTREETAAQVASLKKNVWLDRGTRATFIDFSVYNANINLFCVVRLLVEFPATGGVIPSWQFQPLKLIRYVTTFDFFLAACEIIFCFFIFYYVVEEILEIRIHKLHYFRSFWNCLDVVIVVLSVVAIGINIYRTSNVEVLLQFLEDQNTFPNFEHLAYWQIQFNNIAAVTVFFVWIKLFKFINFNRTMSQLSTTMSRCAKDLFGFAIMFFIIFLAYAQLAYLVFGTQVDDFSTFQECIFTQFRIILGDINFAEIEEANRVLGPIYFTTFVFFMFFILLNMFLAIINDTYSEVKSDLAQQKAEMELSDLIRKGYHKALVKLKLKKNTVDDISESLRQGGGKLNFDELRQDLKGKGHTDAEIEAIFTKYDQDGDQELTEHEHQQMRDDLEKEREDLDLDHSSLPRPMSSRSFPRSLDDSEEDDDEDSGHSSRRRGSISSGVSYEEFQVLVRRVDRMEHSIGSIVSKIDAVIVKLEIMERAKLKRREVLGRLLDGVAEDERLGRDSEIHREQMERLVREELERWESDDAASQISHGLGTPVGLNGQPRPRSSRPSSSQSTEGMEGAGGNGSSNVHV
Assay: proximity labelling; BioID in Flp-In HEK293 T-REx stable lines: bait induced with 1 ug/ml tetracycline and 50 uM biotin for 24 h, cycling cells or cells kept 48 h in 0.5% serum (ciliation-induced); streptavidin capture, LC-MS/MS; SAINTexpress, BFDR <=1% against FlagBirA* controls, PC1-BF also filtered against CD16.7-BF

B1: FNIP1 (protein, UniProt Q8TF40 1-1166)
chain: MAPTLFQKLFSKRTGLGAPGRDARDPDCGFSWPLPEFDPSQIRLIVYQDCERRGRNVLFDSSVKRRNEDISVSKLGSDAQVKVFGKCCQLKPGGDSSSSLDSSVTSSSDIKDQCLKYQGSRCSSDANMLGEMMFGSVAMSYKGSTLKIHQIRSPPQLMLSKVFTARTGSSICGSLNTLQDSLEFINQDNNTLKADNNTVINGLLGNIGLSQFCSPRRAFSEQGPLRLIRSASFFAVHSNPMDMPGRELNEDRDSGIARSASLSSLLITPFPSPNSSLTRSCASSYQRRWRRSQTTSLENGVFPRWSIEESFNLSDESCGPNPGIVRKKKIAIGVIFSLSKDEDENNKFNEFFFSHFPLFESHMNKLKSAIEQAMKMSRRSADASQRSLAYNRIVDALNEFRTTICNLYTMPRIGEPVWLTMMSGTPEKNHLCYRFMKEFTFLMENASKNQFLPALITAVLTNHLAWVPTVMPNGQPPIKIFLEKHSSQSVDMLAKTHPYNPLWAQLGDLYGAIGSPVRLARTVVVGKRQDMVQRLLYFLTYFIRCSELQETHLLENGEDEAIVMPGTVITTTLEKGEIEESEYVLVTMHRNKSSLLFKESEEIRTPNCNCKYCSHPLLGQNVENISQQEREDIQNSSKELLGISDECQMISPSDCQEENAVDVKQYRDKLRTCFDAKLETVVCTGSVPVDKCALSESGLESTEETWQSEKLLDSDSHTGKAMRSTGMVVEKKPPDKIVPASFSCEAAQTKVTFLIGDSMSPDSDTELRSQAVVDQITRHHTKPLKEERGAIDQHQETKQTTKDQSGESDTQNMVSEEPCELPCWNHSDPESMSLFDEYFNDDSIETRTIDDVPFKTSTDSKDHCCMLEFSKILCTKNNKQNNEFCKCIETVPQDSCKTCFPQQDQRDTLSILVPHGDKESSDKKIAVGTEWDIPRNESSDSALGDSESEDTGHDMTRQVSSYYGGEQEDWAEEDEIPFPGSKLIEVSAVQPNIANFGRSLLGGYCSSYVPDFVLQGIGSDERFRQCLMSDLSHAVQHPVLDEPIAEAVCIIADMDKWTVQVASSQRRVTDNKLGKEVLVSSLVSNLLHSTLQLYKHNLSPNFCVMHLEDRLQELYFKSKMLSEYLRGQMRVHVKELGVVLGIESSDLPLLAAVASTHSPYVAQILL
In the case of B1, the binding is reported as “no binding”.

— PMC12663635
